# Library screen at single concentrations

Protein sequences, listed by entry. Tags and fused reporters are not part of them. Residues count along the entry.
UniProt P9WPC5, whole entry: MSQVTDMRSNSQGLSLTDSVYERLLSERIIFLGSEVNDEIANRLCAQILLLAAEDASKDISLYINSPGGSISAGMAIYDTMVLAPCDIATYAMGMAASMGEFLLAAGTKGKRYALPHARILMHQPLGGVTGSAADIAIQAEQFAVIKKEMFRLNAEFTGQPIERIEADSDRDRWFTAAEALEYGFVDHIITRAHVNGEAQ
UniProt P9WPC3, whole entry partner: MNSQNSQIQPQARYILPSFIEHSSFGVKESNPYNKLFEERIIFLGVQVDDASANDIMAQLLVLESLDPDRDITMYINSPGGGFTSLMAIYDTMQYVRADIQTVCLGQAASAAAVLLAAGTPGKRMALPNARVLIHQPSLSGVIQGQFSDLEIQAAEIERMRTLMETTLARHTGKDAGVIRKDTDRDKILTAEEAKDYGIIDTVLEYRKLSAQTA
UniProt A4I591, 1-473: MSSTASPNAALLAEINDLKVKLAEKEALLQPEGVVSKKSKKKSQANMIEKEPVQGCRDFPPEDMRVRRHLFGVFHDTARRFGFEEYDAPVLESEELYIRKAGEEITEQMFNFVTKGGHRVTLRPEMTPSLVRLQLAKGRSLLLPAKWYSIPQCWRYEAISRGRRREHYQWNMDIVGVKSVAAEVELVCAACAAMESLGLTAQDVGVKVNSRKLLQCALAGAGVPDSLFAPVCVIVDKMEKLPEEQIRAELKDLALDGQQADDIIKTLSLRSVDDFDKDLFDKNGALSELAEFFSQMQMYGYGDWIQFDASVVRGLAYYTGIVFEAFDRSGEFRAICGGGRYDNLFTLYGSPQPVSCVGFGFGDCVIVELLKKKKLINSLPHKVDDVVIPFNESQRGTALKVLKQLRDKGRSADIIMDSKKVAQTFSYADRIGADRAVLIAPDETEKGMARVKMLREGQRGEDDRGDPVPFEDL

ClpP1P2: 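Protease assay of ClpP1P2, read by the AMC dye that it sets free. Target: ClpP1P2, Mycobacterium tuberculosis (UniProt P9WPC5 and UniProt P9WPC3). Concentration: 50 µM. Higher reads as stronger inhibition, judged from the few compounds that gave an IC50. Most other retested compounds had strongly negative values. Of about 69,000 compounds tested this way, about 10 (0.015%) reached 50% or more in at least one test.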
LiHisRS: 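Histidine-tRNA ligase, Leishmania infantum (UniProt A4I591). Enzyme assay of histidyl-tRNA synthetase; the read-out is not stated. Concentration: 30 µM. Higher reads as stronger inhibition (inferred: compounds with an IC50 in retests scored well above the rest). The assay is labelled LdHisRS but filed under L. infantum. About 69,000 compounds were tested under these conditions; 0.6% (about 410) showed 50% or more at least once.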

The filed quantity is “Percent Effect” (%). How 0% and 100% were set is not recorded. Most values in the screen are low, and negative values occur. Compounds were drawn at random from those tested, without regard to their results.

Compound	ClpP1P2	LiHisRS
CCCN(Cc1cccnc1)C(=O)C1CCS(=O)(=O)CC1	3.502%	22.22%
Cc1cc(O)ncc1NS(=O)(=O)c1cccc(F)c1F	-8.457%	95.18%
Cc1ncc2c(n1)CN(C(C(N)=O)c1ccccc1)CC2 (centres unmarked)	11.45%	46.48%
C[S+]([O-])c1nncn1CC(=O)c1ccc2c(c1)CCO2 (centres unmarked)	-6.41%	18.87%
O=C(c1cccc2c1OCCO2)N1CCCC1c1noc(C2CC2)n1 (centres unmarked)	-29.27%	14.29%
Cc1nc(CCC(N)=O)cc(C2CCCN2S(C)(=O)=O)n1 (centres unmarked)	-27.32%	6.711%
Cc1cccc(C(=O)N2C[C@@H]3[C@H](CC(=O)N4CCCC4)[C@@H]3C2)n1	-12.45%	13.59%
O=C(NCC(=O)N1CCCCC1)c1ccc(Cl)cc1I	0.8285%	23.08%
Cc1ccc(N2CCN(C(=O)C(O)c3cccc(Cl)c3)CC2=O)cc1 (centres unmarked)	-11.09%	13.21%
CCCNC(=O)N1CCN(Cc2cc(C)no2)CC1	6.356%	31.82%
O=C1CCCN1CCN1CCCC(c2ccn[nH]2)C1 (centres unmarked)	-0.7105%	3.03%
Nc1nccnc1C(=O)N(Cc1ccccc1O)CC1CCCO1 (centres unmarked)	4.693%	15.52%
CC(=O)N1Cc2ccccc2CC2(CCCCN2C)C1 (centres unmarked)	18.6%	9.655%
Cc1cnc(CN2CCC(N(C)Cc3nnc(C4CC4)n3C)C2)cn1 (centres unmarked)	-11.08%	11.32%
CC(C)OC(=O)CN1N=C(C(=O)N2CCCC2)S(=O)(=O)c2ccccc21	8.645%	26.09%
Cc1ccc(N2CCCC3(CCCC(=O)N3)C2)nn1 (centres unmarked)	-0.1462%	8.621%
CS(=O)(=O)NCC1CCCN(C(=O)COCC2CC2)C1 (centres unmarked)	-11.52%	12.84%
Cc1nc(Cn2cncc(Br)c2=O)no1	-15.74%	11.43%
CC1CCN(C(=O)CSc2nc3c(cnn3CCO)c(=O)[nH]2)CC1	19.6%	8.989%
CN(Cc1ccc2c(c1)OCCO2)Cc1nnnn1-c1ccccc1	-19.69%	2.5%
Fc1cccc(C(NCc2ncc[nH]2)c2ccccc2)c1 (centres unmarked)	-0.7538%	20.43%
O=C(NCc1ccccc1)C1CN(c2ccccn2)CCO1 (centres unmarked)	1.805%	14.18%
O=C(CN(Cc1ccccc1)CC1CCOCC1)Nc1nccs1	-17.73%	-5.714%
Cn1nc(C(=O)NCc2ccc(F)cc2)c2c1CCS(=O)(=O)C2	8.639%	13.79%
O=C1NCC2(CCCN(Cc3ccc(Cl)s3)C2)Oc2ccccc21 (centres unmarked)	-0.1894%	14.29%
NC(=O)CN1CCC(NC(=O)COc2ccc(Cl)c(Cl)c2)CC1	-10.39%	13.68%
Cc1nc(C(=O)N2CCc3[nH]nc(Nc4ccccc4)c3C2)co1	-12.57%	4.225%
Cc1cccc(CN2C(=O)CC[C@@H]3[C@H]2CCN3Cc2ccc(F)cc2)n1	-3.022%	20.59%
CC(C)N1CCO[C@@H]2CN(C(=O)NCc3ccccc3)CC[C@@H]2C1	18.85%	-0.9091%
CCc1nc2ccccc2c(=O)n1CC1(O)CCN(C(=O)C2CC2)CC1	1.08%	5.208%
Cc1ccc(CN2CC[C@H]3OCC[C@@H](C(=O)N4CCCCO4)[C@@H]3C2)o1	-14.94%	10.26%
CN(C)CC(=O)N1CCc2ncnc(-c3ccsc3)c2CC1	-8.58%	10.53%
c1ccc(-c2noc(CCNC3CCOC4(CCOCC4)C3)n2)nc1 (centres unmarked)	-8.298%	4.819%
Cc1cnn(CC2CCCN2C(=O)c2n[nH]c(=O)c3ccccc23)c1 (centres unmarked)	-43.04%	13.27%
CN(C)S(=O)(=O)N1CC[C@]2(O)CCN(Cc3cccc(C#N)c3)C[C@@H]2C1	-12.95%	4.819%
CN(C)C[C@@H]1C[C@@H]2CN(Cc3nccn3C)CC[C@@H]2N1CC1CC1	9.996%	0%
CN(C)[C@@H]1CN(Cc2ccc(O)cc2)C[C@H]1c1cn(C)c2ccccc12	-18.68%	4.317%
CN(Cc1ccco1)C(=O)NCc1nnc2n1CCC2	-6.144%	28.77%
O=C(C1CSc2ccccc2O1)N1CCN(CCO)CC1 (centres unmarked)	4.24%	15%
O=C1N(Cc2cccc(Cl)c2)CCC12CCCNC2 (centres unmarked)	2.386%	21.15%
Nc1nc(CN2CCCCC2Cn2cncn2)nc2ccccc12 (centres unmarked)	-38.77%	25.69%
Cc1ccn(CCC(=O)NCc2ccc(C)o2)n1	-13.77%	8.219%
CN(Cc1cc[nH]n1)C(=O)c1ccc2c(c1)nc(N1CC[C@H](O)C1)n2C	1.083%	10.62%
COCC1CN(C(=O)N2CCCC2)Cc2cnn(CC3CCCC3)c21 (centres unmarked)	0.8329%	15.04%
CC(C)n1nc(CN2CCCC2=O)c2c1CN(C(=O)c1ccco1)C2	-5.609%	9.91%
CN(C)CCN1CCOC2(CCN(c3nccs3)CC2)c2ccccc21	-11.28%	7.018%
Cn1cc(C(=O)N2CCCC(Cc3cccc4ncccc34)C2)cn1 (centres unmarked)	-14.49%	10.14%
COCC(=O)N1CCc2nc(C)nc(NC(C)C)c2CC1	-10.2%	6.364%
COc1ncccc1CN1C[C@@H]2C[C@@H](C(=O)NCC3CC3)N(C)[C@@H]2C1	5.825%	24.77%
CCc1ccccc1N1CC(c2nnc(N)s2)CC1=O (centres unmarked)	-20.26%	-3.704%
COc1cc(C(=O)Nc2cn[nH]c2)ccc1C	-14.47%	19.64%
CN1CCN(C(=O)c2cc(C#N)cn2C)c2ccccc2C1	-8.875%	12.86%
O=C(CCn1ccnc1)N1C[C@@H](O)[C@H](Oc2cccc(F)c2)C1	-0.3763%	9.474%
CC1CCCN(C(=O)c2occc2COc2cccc(C#N)c2)C1 (centres unmarked)	-20.39%	7.08%
COCCC(=O)NCC1COc2cc(OC)ccc2C1 (centres unmarked)	-12.47%	20.78%
Cc1nc(CN2C[C@@H]3CN(C(=O)c4ccoc4C)C[C@@H]3C2=O)cs1	-1.442%	-2.941%
CCN(CC)C(=O)[C@@H]1C[C@H](n2cc(-c3cccc(OC)c3)nn2)CN1	-7.855%	18.42%
CN(Cc1noc(C2CC2)n1)C1CCN(CCn2cc(C#N)cn2)C1 (centres unmarked)	0.2032%	14.04%
Cc1ccnc(NC(=O)c2c(C)oc(C)c2C)c1	11.28%	22.37%
COc1cccc(F)c1C(C)NC(=O)NCc1cnc(C)s1 (centres unmarked)	-9.857%	19.47%
COc1ccc(CN2CC[C@H]3[C@H]2CC(=O)N3Cc2cccc(C)n2)cc1	-10.31%	13.76%
CC(C)c1noc(C2CCN(S(=O)(=O)c3cccs3)CC2)n1	8.137%	12.5%
COCCNC(=O)[C@H]1CN(Cc2csc(C)n2)C[C@H]2OCC[C@@H]12	-17.3%	22.58%
CCc1nnc(CNC(=O)CCC2CCCN(C)C2)s1 (centres unmarked)	3.182%	6.667%
COc1ccc(-c2cn[nH]c2)cc1CNC1CCCC1	-1.52%	0%
COCCOCCC(=O)Nc1c(-c2ccc(F)cc2)ncn1C	3.197%	9.524%
Cn1c(=O)oc2ccc(NC(=O)N3CCSCC3)cc21	1.674%	14.29%
O=C(Nc1cccn(CC(F)(F)F)c1=O)c1ccncc1F	0.6778%	17.14%
O=C(c1cccc2cccnc12)N1CCCN(c2cccnn2)CC1	11.94%	21.33%
Cc1cccc(C2(C(=O)NCC3CCN(CC(F)(F)F)C3)CCC2)c1 (centres unmarked)	-2.636%	14.78%
COc1ccc(Br)cc1NCC(=O)NC(C)(C#N)C1CC1 (centres unmarked)	4.852%	26.76%
Cc1ccc(C2(O)CCN(C(=O)c3ccc(S(N)(=O)=O)cc3)CC2)nc1	-20.87%	18.48%
CNc1cc2c(nn1)CCN(C(=O)c1ccc(-n3nccc3C)cc1)C2	7.795%	5.333%
CNC(=O)c1cn[nH]c1C1CCCN1C(=O)c1ccccn1 (centres unmarked)	0.7441%	12.68%
COc1ccc2c(c1)C1(CCN(Cc3cccnc3)CC1)N(C)CC2	3.51%	21.05%

Repeated from the top, 4 entries:

Compound	ClpP1P2	LiHisRS
CCCN(Cc1cccnc1)C(=O)C1CCS(=O)(=O)CC1	3.502%	22.22%
Cc1cc(O)ncc1NS(=O)(=O)c1cccc(F)c1F	-8.457%	95.18%
Cc1ncc2c(n1)CN(C(C(N)=O)c1ccccc1)CC2 (centres unmarked)	11.45%	46.48%
C[S+]([O-])c1nncn1CC(=O)c1ccc2c(c1)CCO2 (centres unmarked)	-6.41%	18.87%

Measurements from “University of Dundee, Small-Polar-MMV Screening Library” (2021), ChEMBL document CHEMBL3988442.